According to patent US12378220B2, “WNT signaling pathway inhibitors for treatments of disease” (University of Maryland, Baltimore, priority 2016, dated 2025):
Where two headings read alike, the source gives them in different places.

Key:
[1] = tested on: Madin-Darby Canine Kidney (MDCK) epithelial cell monolayer
[2] = tested on: Wnt/β-catenin pathway; assay: dual-luciferase TCF/LEF reporter assay, LiCl-activated, HEK293 cells; assay type: cell-based; conditions: for IC50: Homo sapiens
Description: Lithium chloride (LiCl), which has been previously established as an activator of the Wnt/β-catenin pathway through its direct and indirect effects on GSK3β was used for pathway activation. The inhibition of the Wnt/β-catenin pathway by a compound may be determined after its incubation with cells for 24 hours.
The assay provided herein is a dual-luciferase assay to measure Wnt/β-catenin pathway activation using a TCF/LEF responsive reporter construct similar to that described previously (Thorne et al., 2010).

[3] = tested on: C57BL/6 mice on high-fat diet; conditions: 0.5 mg/kg/3 days
Description: C57BL/6 mice (n=6/group) were put either on high-fat (HF) or normal chow (NC) diet.

[4] = tested on: HEK293 cells; assay: cytotoxicity, Cell Counting Kit-8 colorimetric assay; conditions: Homo sapiens, HEK293, read-out: anti-proliferation IC50
[5] = pilot pharmacokinetic study, single IV and oral administration
Description: Representative data from each group is shown.
Blood samples were collected at multiple time points. […] Ultra-performance liquid chromatography system with a triple quadruple detector (UPLC/TQD) was used for compound quantitation.

[6] = tested on: C57BL/6 mice

For `Cc1cc(/C=C/c2ccc3cc(N(C)C)ccc3[n+]2C)c(C)n1-c1ccccc1` [Pyrvinium, pyrvinium, reference compound], the “apical-to-basolateral and basolateral-to-apical flux” value [1] was “below the limit of detection”, the “remaining Wnt signaling activity (or RLU %)” value [2] was 29.1% and the IC50 ([2]; HEK293, read-out: IC50 (nM) or remaining activity at 1 μM: IC50) was 293 nM. For the same compound, the IC50 ([2]; HEK293, read-out: IC50, Wnt/β-catenin pathway inhibition) was 273 nM, the IC50 ([2]; HEK293, read-out: 50% of inhibition (IC50)) was 294 nM and the “overt toxicity on repeated dosing” value [3] was “overt toxicity was not observed”. For the same compound, the IC50 [4] was 2000 nM, the absorption ([5]; oral, mice) was “little or no absorption” and the “death after intravenous administration in PK study” value ([5]; pyrvinium pamoate 2 mg/kg IV) was “died after thirty minutes”. The oral half-life ([5]; pyrvinium pamoate 2 mg/kg oral, mice) was “about one”, the “time to death after single dose” value ([6]; single IV dose 2 mg/kg, preliminary survival study) was ≤ 6 h and the “lethality of single dose” value ([6]; single dose of 2 mg/kg) was “caused mouse death”.
